Test results: paper PMC8508734 (International Journal of Molecular Sciences, 2021)
No constants are given. Whether binding was seen depends on the method and setting. For some of these results: In cells and extracts the contact can be indirect. Some entries that bind do so weakly or less than the wild type. One block for each molecule: values may come before it.

Legend:
[1] = target: H3R-YFP (rat histamine H3 receptor, long isoform H3(445)R, fused to Yellow Fluorescent Protein) (rat) (UniProt Q9QYN8); experiment: co-IP; HEK 293 cells co-transfected with H3R-YFP and Xpress-H3R; lysis in 50 mM Tris pH 7.5, 150 mM NaCl, 10 mM EDTA, 0.5% Triton X-100; precipitated by the YFP (anti-GFP antibodies with protein A-sepharose in the methods, GFP-Trap agarose beads in the legend), blot with anti-Xpress antibody; background: Xpress-H3R without H3R-YFP
[2] = target: native brain histamine H3 receptor (H3R) (rat (endogenous in rat brain)) (UniProt Q9QYN8); experiment: SDS-PAGE and Western blot (SDS-resistant dimer); membranes from rat cerebral cortex, cerebellum and hypothalamus, NuPAGE 7% Tris-acetate gel, reducing conditions, anti-H3R antibody
[3] = target: H3R-RLuc (rat histamine H3 receptor, long isoform H3(445)R, fused to Renilla Luciferase) (rat) (UniProt Q9QYN8); experiment: FRET or BRET; BRET in living rat cortical neurons in primary culture co-transfected with H3R-RLuc and H3R-YFP or TAAR1-YFP; without or with H3R ligands (100 nM)
[4] = target: H3R-RLuc (rat histamine H3 receptor, long isoform H3(445)R, fused to Renilla Luciferase) (rat) (UniProt Q9QYN8); experiment: FRET or BRET; BRET on sub-cellular fractions (sucrose step gradient: plasma membrane and ER fractions) and membrane preparations of HEK 293 cells co-transfected with H3R-RLuc and H3R-YFP

- binding [1]: binds
Molecule: Xpress-H3R (H3 receptor tagged at its N-terminus with an Xpress epitope) (from UniProt Q9QYN8 1-445)

- binding [2]: binds
Molecule: native brain histamine H3 receptor (H3R) (from UniProt Q9QYN8 1-445)

- binding [3]: binds
- binding [4]: binds
B1: H3R-YFP (rat histamine H3 receptor, long isoform H3(445)R, fused to Yellow Fluorescent Protein) (receptor, UniProt Q9QYN8 1-445, looked up)
chain: MERAPPDGLMNASGTLAGEAAAAGGARGFSAAWTAVLAALMALLIVATVLGNALVMLAFVADSSLRTQNNFFLLNLAISDFLVGAFCIPLYVPYVLTGRWTFGRGLCKLWLVVDYLLCASSVFNIVLISYDRFLSVTRAVSYRAQQGDTRRAVRKMALVWVLAFLLYGPAILSWEYLSGGSSIPEGHCYAEFFYNWYFLITASTLEFFTPFLSVTFFNLSIYLNIQRRTRLRLDGGREAGPEPPPDAQPSPPPAPPSCWGCWPKGHGEAMPLHRYGVGEAGPGVEAGEAALGGGSGGGAAASPTSSSGSSSRGTERPRSLKRGSKPSASSASLEKRMKMVSQSITQRFRLSRDKKVAKSLAIIVSIFGLCWAPYTLLMIIRAACHGRCIPDYWYETSFWLLWANSAVNPVLYPLCHYSFRRAFTKLLCPQKLKVQPHGSLEQCWK
notes: histamine H3 receptor, rat, long isoform H3(445)R (445 residues), cDNA amplified without its stop codon and cloned into pEYFP-N1; The same construct was expressed in HEK 293 cells and in rat cortical neurons; the assay tells which; also called C-terminal YFP-fused H3R; source: rat cortical neurons in primary culture, transfected (lipofectamine 2000); not shown: YFP, C-terminal, kept
